The values that follow come from publication PMC9969401, “Discovery of 2-(3-Benzamidopropanamido)thiazole-5-carboxylate Inhibitors of the Kinesin HSET (KIFC1) and the Development of Cellular Target Engagement Probes” (Journal of Medicinal Chemistry, 2023).

A short description of the data set: IEDDA test reaction of TCO probes with model tetrazine (LC-MS). The note with it: TCO probe:tetrazine 1:2, room temperature, 5 min.

Regarding `CCCOC(=O)c1sc(NC(=O)C[C@H](CCCN(C)C(=O)O[C@@H]2CC/C=C/CCC2)NC(=O)c2cccc(-c3noc(C)n3)c2)nc1C` [Compound 38, Propyl 2-((S)-6-(((((S,E)-Cyclooct-4-en-1-yl)oxy)carbonyl)(methyl)amino)-3-(3-(5-methyl-1,2,4-oxadiazol-3-yl)benzamido)hexanamido)-4-methylthiazole-5-carboxylate], the “conversion in IEDDA reaction” value amounted to 91%.
As to `CCCOC(=O)c1sc(NC(=O)C[C@H](CCCN(C)CCOCCOCCNC(=O)O[C@@H]2CC/C=C/CCC2)NC(=O)c2cccc(-c3noc(C)n3)c2)nc1C` [Compound 39, Propyl 2-((S)-1-(((S,E)-Cyclooct-4-en-1-yl)oxy)-11-methyl-15-(3-(5-methyl-1,2,4-oxadiazol-3-yl)benzamido)-1-oxo-5,8-dioxa-2,11-diazaheptadecan-17-amido)-4-methylthiazole-5-carboxylate], the “conversion in IEDDA reaction” value is on record as 35%.
On to `CCCOC(=O)c1sc(NC(=O)C[C@H](CCCN(C)CC#CCNC(=O)O[C@@H]2CC/C=C/CCC2)NC(=O)c2cccc(-c3noc(C)n3)c2)nc1C` [Compound 40, propyl 2-((S)-6-((4-(((((S,E)-Cyclooct-4-en-1-yl)oxy)carbonyl)amino)but-2-yn-1-yl)(methyl)amino)-3-(3-(5-methyl-1,2,4-oxadiazol-3-yl)benzamido)hexanamido)-4-methylthiazole-5-carboxylate], for which the “conversion in IEDDA reaction” value is 84%.
